# Results: PubChem BioAssay AID588590 (National Center for Advancing Translational Sciences (NCATS), 2011)
# Protein sequences, listed by entry. Tags and fused reporters are not part of them. Lines headed by an entry give the natural chain unless they say otherwise; changes in a name come on top.
# UniProt Q9UNA4: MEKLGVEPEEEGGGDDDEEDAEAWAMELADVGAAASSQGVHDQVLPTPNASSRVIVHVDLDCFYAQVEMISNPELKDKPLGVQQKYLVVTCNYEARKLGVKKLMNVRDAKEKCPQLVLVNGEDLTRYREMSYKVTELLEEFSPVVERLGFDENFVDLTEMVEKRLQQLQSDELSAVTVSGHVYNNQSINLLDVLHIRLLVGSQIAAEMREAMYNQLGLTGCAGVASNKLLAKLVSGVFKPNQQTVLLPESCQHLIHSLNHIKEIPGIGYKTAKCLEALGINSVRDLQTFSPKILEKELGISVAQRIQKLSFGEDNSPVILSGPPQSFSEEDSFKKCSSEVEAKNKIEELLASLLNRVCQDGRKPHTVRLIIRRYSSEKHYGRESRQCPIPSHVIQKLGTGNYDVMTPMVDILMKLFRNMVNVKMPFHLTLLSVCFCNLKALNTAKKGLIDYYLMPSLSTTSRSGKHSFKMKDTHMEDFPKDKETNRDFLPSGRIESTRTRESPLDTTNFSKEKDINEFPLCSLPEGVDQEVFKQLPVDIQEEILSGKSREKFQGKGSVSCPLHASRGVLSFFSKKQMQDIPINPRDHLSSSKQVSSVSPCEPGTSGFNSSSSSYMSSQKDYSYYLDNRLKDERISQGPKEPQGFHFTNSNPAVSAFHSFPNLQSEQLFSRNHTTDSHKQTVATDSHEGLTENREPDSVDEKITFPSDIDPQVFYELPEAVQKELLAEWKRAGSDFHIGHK
# About 4,000 (1%) of roughly 390,000 compounds were called active. This list was built around the results that the source calls inconclusive (neither active nor inactive); the mix of calls is not that of the screen. Calls follow the shape of the dose curve; as a rule, active = well fitted inhibition curve with a large enough effect; inconclusive = small, poorly fitted or top-dose-only effect, or another doubt; inactive = no such curve, though single readings can be large or run the other way. A potency beside an inconclusive call is a rough fit, not a confirmed value.
# Target: DNA polymerase iota (Homo sapiens) (UniProt Q9UNA4)
# Experiment: qHTS for Inhibitors of Polymerase Iota
# Conditions: Pol iota fluorescent replication assay, 10 min; series mostly up to 115 µM
# Procedure, shortened: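 Fluorescent replication assay read twice, at 0 min and 10 min after adding 50 nM (final) substrate. Enzyme (10 nM) and compounds were first incubated 15 min at room temperature; enzyme-free buffer wells were negative controls.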
# Potency is read from the fitted curve at half-maximal effect.
row,SMILES,Potency
1,O=Cc1ccc(N2CCOCC2)cc1,inactive
2,Cc1ccccc1-n1c(SCC(=O)c2cc(C)n(C)c2C)nnc1-c1ccncc1,"inconclusive: 100 µM [inhibitor, partial curve, poor fit]"
3,O=C(O)CNc1ccccc1C(=O)O,"inconclusive: 44.7 µM [inhibitor, partial curve]"
4,COC(=O)C1CCN(C(=O)COC(=O)CNS(=O)(=O)c2ccc(SC)c([N+](=O)[O-])c2)CC1,active: 79.4 µM
5,O=c1c2ccccc2sc2ccc(Cl)cc12,inactive
6,CCN(CC)S(=O)(=O)c1ccc2oc(C(=O)NCCCN3CCOCC3)c(C)c2c1,"inconclusive: 100 µM [inhibitor, single point]"
7,Cc1ccc(C(O)(C(=O)NNc2ccccn2)c2ccc(C)cc2)cc1,inactive
8,Cn1cc(C(=O)CCl)c2ccccc21,"inconclusive: 25.1 µM [inhibitor, full curve, poor fit]"
9,Cc1cc(N2CCN(c3cccc(C(F)(F)F)c3)CC2)n2nc(-c3ccccc3C)nc2n1,inactive
10,Cc1noc(NS(=O)(=O)c2ccc(NC(=O)c3ccoc3C)cc2)c1C,active: 39.8 µM
11,O=C(CCN1CCN(Cc2ccccc2)CC1)NNC(=O)Nc1cccc(C(F)(F)F)c1,inactive
12,O=C(Nc1ccc([N+](=O)[O-])cc1Cl)c1cc(Cl)ccc1O,"inconclusive: 50.1 µM [inhibitor, single point]"
13,Cc1cc(C)c(C)c(S(=O)(=O)N[C@@H](C)C(=O)OCc2cc(=O)n3cc(Br)ccc3n2)c1C,active: 50.1 µM
14,O=C(Nc1ccccc1)C1=C[C@H](c2ccc(Br)cc2)C[C@H](OCc2ccc(CO)cc2)O1,"inconclusive: 35.5 µM [inhibitor, full curve]"
15,C=C1CCN([C@H](C(=O)NCc2ccccc2)C(C)C)S(=O)(=O)c2ccccc21,"inconclusive: 39.8 µM [inhibitor, single point]"
16,Cc1ccc2c(C)c(C(=O)N3CCC(c4nc5ccccc5s4)CC3)oc2c1C,inactive
17,Cn1cnnc1SCC(=O)Nc1ncc([N+](=O)[O-])s1,active: 7.94 µM
18,COC(=O)C1(Cc2ccc(O)c(CC3OC3(C)C)c2)OC(=O)C(O)=C1c1ccc(O)cc1 (stereo unspecified),"inconclusive: 56.2 µM [inhibitor, partial curve, poor fit]"
19,COc1cc(OC)c(OC)cc1/C=C/C(=O)OCC(=O)Nc1c(C)n(C)n(-c2ccccc2)c1=O,inactive
20,O=C(Nc1ccccc1C(F)(F)F)Nc1c[nH]c(=O)[nH]c1=O,inactive
21,O=C(CBr)c1ccc(Oc2ccc(C(=O)C[n+]3cccc(Br)c3)cc2)cc1,active: 79.4 µM
22,CCN1C(=O)[C@H]2[C@H]3CN=C(SCC(=O)c4ccccc4)N3[C@@](C)(C(=O)OC)[C@H]2C1=O,"inconclusive: 22.4 µM [inhibitor, partial curve, poor fit]"

row,SMILES,Potency
1,COc1ccc(/C=C/C(=O)c2c(O)cc(C)oc2=O)c(OC)c1,"inconclusive: 28.2 µM [inhibitor, single point]"
2,Cc1cccc(C(=O)NCC(=O)N2CCCC2)c1,inactive
3,CC(C)C[C@@H](CN)NC(=O)c1nc[nH]c1C(=O)N[C@@H](C)C(=O)CNC[C@H](CC(C)C)NC(=O)c1nc[nH]c1C(=O)N[C@@H](Cc1ccccc1)C(=O)O,"inconclusive: 22.4 µM [inhibitor, full curve]"
4,Cc1nc(N2CCN(C(=O)c3ccco3)CC2)c2oc3ccccc3c2n1,"inconclusive: 12.6 µM [inhibitor, partial curve, poor fit]"
5,O=C(NCC(=O)N(c1ccc2c(c1)OCO2)C(C(=O)NC1CCCC1)c1ccncc1)c1ccco1 (stereo unspecified),"inconclusive: 3.55 µM [inhibitor, partial curve, poor fit]"
6,CC1CCCCN1C(=O)COC(=O)c1ccc(S(C)(=O)=O)c([N+](=O)[O-])c1 (stereo unspecified),"inconclusive: 17.8 µM [inhibitor, partial curve, poor fit]"
7,O=C(NCCCN1CCOCC1)c1onc(CSc2ccccc2)c1C(=O)NCCCN1CCOCC1,"inconclusive: 12.6 µM [inhibitor, partial curve, poor fit]"
8,COc1ccc(Cl)cc1NC(=O)CSc1nnc2[nH]c(=O)cc(C)n12,inactive
9,CCOc1cc(/C=C2/C(=N)N3N=C(CC)SC3=NC2=O)ccc1OC(=O)c1ccco1,"inconclusive: 28.2 µM [inhibitor, partial curve, poor fit]"
10,CCN(CC)c1ccc(NC(=O)Cn2c3ncccc3c(=O)n2-c2ccccc2)c(C)c1,inactive
11,Cc1ccc(C(=O)NCCC(C)C)cc1NC(=O)c1nsc2ccccc12,"inconclusive: 89.1 µM [inhibitor, single point]"
12,COc1cc2c(=O)c(C(=O)c3ccc(F)cc3)cn(Cc3cccc(F)c3)c2cc1OC,inactive
13,COc1ccc(-c2ccc(-c3nc4ccc(C)cn4c3NC3CCCCC3)cc2OC)cc1,"inconclusive: 50.1 µM [inhibitor, partial curve, poor fit]"
14,COC(=O)c1cc(S(=O)(=O)N2CCN(c3cc(Cl)ccc3C)CC2)c[nH]1,"inconclusive: 89.1 µM [inhibitor, single point]"
15,O=c1c2c(-c3ccco3)csc2nc(SCc2cn3cccnc3n2)n1-c1ccccc1,"inconclusive: 7.94 µM [inhibitor, full curve, poor fit]"
16,CC1CCCCN1C(=O)CCS(=O)(=O)Cc1ccccc1 (stereo unspecified),"inconclusive: 100 µM [inhibitor, single point]"
17,Cc1ccc(-c2csc3nc4cc(C(N)=O)ccc4c(=O)n23)cc1,"inconclusive: 28.2 µM [inhibitor, partial curve, poor fit]"
18,COc1cccc(NC(=O)CCNS(=O)(=O)c2cccc3nonc23)c1,"inconclusive: 79.4 µM [inhibitor, single point]"
19,CC(C)(C)n1ncc2c(=O)n(Cc3c(F)ccc(F)c3Cl)cnc21,inactive
20,COc1ccc(C(=O)Nc2nc(-c3nnn(-c4ccc(F)cc4F)c3C)ns2)cc1,"inconclusive: 89.1 µM [inhibitor, partial curve, poor fit]"
21,Cc1ccc(O)c(Nc2nc3ccccc3c3nncn23)c1,inactive
22,O=C(CN1C(=O)/C(=C\c2cccs2)SC1=S)Nc1cccc(C(=O)O)c1,"inconclusive: 12.6 µM [inhibitor, full curve]"

# Of the compounds above, these have bromine.
row,SMILES,Potency
13,Cc1cc(C)c(C)c(S(=O)(=O)N[C@@H](C)C(=O)OCc2cc(=O)n3cc(Br)ccc3n2)c1C,active: 50.1 µM
14,O=C(Nc1ccccc1)C1=C[C@H](c2ccc(Br)cc2)C[C@H](OCc2ccc(CO)cc2)O1,"inconclusive: 35.5 µM [inhibitor, full curve]"
21,O=C(CBr)c1ccc(Oc2ccc(C(=O)C[n+]3cccc(Br)c3)cc2)cc1,active: 79.4 µM

# Going on with the list.

row,SMILES,Potency
1,CC(C)Oc1cccc(C(=O)N/N=C/c2ccoc2)c1,inactive
2,CCc1nc2scc(-c3cccs3)c2c(=O)o1,"inconclusive: 22.4 µM [inhibitor, partial curve]"
3,CCOc1ccc(C(=O)Nc2ccc3oc(-c4cccc5ccccc45)nc3c2)cc1,"inconclusive: 89.1 µM [inhibitor, single point]"
4,Cc1csc2nc(-c3ccc(NS(=O)(=O)c4cccc(F)c4)cc3)cn12,inactive
5,Cc1ccc(-c2nc(C)c(CCNC(=O)C(=O)Nc3cc(C)ccc3C)s2)cc1,inactive
6,Cn1c(SCC(=O)NC2CC2)nnc1-c1ccc(Cl)cc1,"inconclusive: 7.08 µM [inhibitor, single point]"
7,Cc1ccc(-c2n[nH]c3c2C(c2ccccc2Cl)N(c2ccc(C(=O)O)cc2)C3=O)cc1 (stereo unspecified),"inconclusive: 50.1 µM [inhibitor, partial curve, poor fit]"
8,COc1cc2cc(Oc3ccc4ccc(=O)oc4c3)c(=O)oc2cc1O[C@@H]1O[C@H](CO)[C@@H](O)[C@H](O)[C@H]1O,active: 50.1 µM
9,Cc1c(Cc2ccccc2)sc(/N=C/c2c(O)ccc3ccccc23)c1C(N)=O,"inconclusive: 28.2 µM [inhibitor, single point]"
10,COC1=C/C(=C/c2c(N)n3c(nc2=O)sc2cc(S(C)(=O)=O)ccc23)C=CC1=O,"inconclusive: 44.7 µM [inhibitor, partial curve, poor fit]"
11,COc1ccc(NC(=O)/C(C#N)=C/c2ccc(-c3ccc(Cl)c(C(=O)O)c3)o2)cc1,"inconclusive: 79.4 µM [inhibitor, single point]"
12,CCOc1ccc(N=Nc2c(=O)[nH]n3c(=O)c4c([nH]c23)CCCC4)cc1,inactive
13,CCc1ccc(CNC(=O)c2cnc(N3CCCCC3)c3ccccc23)cc1,"inconclusive: 89.1 µM [inhibitor, single point]"
14,Cc1ccc(S(=O)(=O)Cc2cc(-c3ccc(Cl)cc3)no2)cc1,"inconclusive: 14.1 µM [inhibitor, full curve, poor fit]"
15,OCCCN=c1cc(-c2ccccc2)oc2ccc(Cl)cc12,"inconclusive: 0.316 µM [inhibitor, full curve, poor fit]"
16,O=C(CN1C(=O)CC(c2ccco2)Sc2ccccc21)Nc1cccc(C(F)(F)F)c1 (stereo unspecified),"inconclusive: 3.98 µM [inhibitor, partial curve, poor fit]"
17,O=[N+]([O-])c1ccc(NCCc2ccccc2)c(Br)c1,inactive
18,Cc1nc(SCC(=O)Nc2ccc(OCc3ccccc3)cc2)n[nH]1,inactive
19,c1coc(CNc2ncnc3c2[nH]c2ccccc23)c1,"inconclusive: 89.1 µM [inhibitor, single point]"
20,CC1CCc2nn(CC(=O)Nc3ccc(F)cc3F)cc2C1 (stereo unspecified),"inconclusive: 79.4 µM [inhibitor, single point]"
21,CC(=O)Nc1ccc(Nc2c3ccccc3nc3ccccc23)cc1,"inconclusive: 70.8 µM [inhibitor, partial curve, poor fit]"
22,Cc1ccc(C2(SCC(N)C(=O)O)c3ccccc3-c3ccccc32)cc1 (stereo unspecified),"inconclusive: 20 µM [inhibitor, full curve, poor fit]"
